Experimental data: PMC9377749 (Molecular Cancer Therapeutics, 2022)

System: MDA-MB-231 cells
Test: In vitro 2D cytotoxicity
Assay type: cell-based
Conditions: Homo sapiens, MDA-MB-231, 72 h

COc1cccc2c1C(=O)c1c(O)c3c(c(O)c1C2=O)C[C@@](O)(C(=O)CO)C[C@@H]3O[C@H]1C[C@H](N)[C@H](O)[C@H](C)O1 [Dox, Doxorubicin, reference compound] gave an IC50 of 310 nM.
